Reference: the supplement of paper PMC10849652
The list shows a part of the results.

The chains behind the UniProt entries cited, without tags or fusion partners. Where a name states a change or a piece, a line headed by the entry shows the natural chain unless it says otherwise.
UniProt Q00577: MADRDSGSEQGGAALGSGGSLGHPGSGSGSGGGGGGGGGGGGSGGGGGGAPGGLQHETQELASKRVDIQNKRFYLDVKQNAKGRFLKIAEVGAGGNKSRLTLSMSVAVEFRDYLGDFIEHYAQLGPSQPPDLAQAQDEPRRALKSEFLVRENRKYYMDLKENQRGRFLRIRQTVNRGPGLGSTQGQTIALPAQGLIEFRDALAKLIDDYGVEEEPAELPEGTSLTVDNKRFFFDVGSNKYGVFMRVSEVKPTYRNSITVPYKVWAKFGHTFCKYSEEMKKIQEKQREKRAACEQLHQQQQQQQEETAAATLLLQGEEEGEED
UniProt Q15008: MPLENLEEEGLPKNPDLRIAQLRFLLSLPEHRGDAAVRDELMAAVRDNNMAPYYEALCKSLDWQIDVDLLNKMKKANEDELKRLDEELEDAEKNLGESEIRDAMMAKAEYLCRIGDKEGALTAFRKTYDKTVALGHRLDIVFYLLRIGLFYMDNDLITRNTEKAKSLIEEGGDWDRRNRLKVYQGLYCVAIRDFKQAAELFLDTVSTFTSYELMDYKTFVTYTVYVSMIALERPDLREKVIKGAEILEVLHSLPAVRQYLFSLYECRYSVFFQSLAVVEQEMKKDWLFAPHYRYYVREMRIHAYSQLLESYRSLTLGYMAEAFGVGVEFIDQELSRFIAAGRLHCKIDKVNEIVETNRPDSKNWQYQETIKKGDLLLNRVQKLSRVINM
UniProt Q9BRX8: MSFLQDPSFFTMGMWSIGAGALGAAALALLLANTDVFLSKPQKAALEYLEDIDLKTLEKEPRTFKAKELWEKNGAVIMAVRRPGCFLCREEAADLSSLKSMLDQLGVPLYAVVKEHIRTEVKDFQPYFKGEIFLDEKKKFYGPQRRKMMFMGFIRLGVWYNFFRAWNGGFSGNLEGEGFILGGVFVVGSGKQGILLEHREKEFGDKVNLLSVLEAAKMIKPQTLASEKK
UniProt Q9UHX1: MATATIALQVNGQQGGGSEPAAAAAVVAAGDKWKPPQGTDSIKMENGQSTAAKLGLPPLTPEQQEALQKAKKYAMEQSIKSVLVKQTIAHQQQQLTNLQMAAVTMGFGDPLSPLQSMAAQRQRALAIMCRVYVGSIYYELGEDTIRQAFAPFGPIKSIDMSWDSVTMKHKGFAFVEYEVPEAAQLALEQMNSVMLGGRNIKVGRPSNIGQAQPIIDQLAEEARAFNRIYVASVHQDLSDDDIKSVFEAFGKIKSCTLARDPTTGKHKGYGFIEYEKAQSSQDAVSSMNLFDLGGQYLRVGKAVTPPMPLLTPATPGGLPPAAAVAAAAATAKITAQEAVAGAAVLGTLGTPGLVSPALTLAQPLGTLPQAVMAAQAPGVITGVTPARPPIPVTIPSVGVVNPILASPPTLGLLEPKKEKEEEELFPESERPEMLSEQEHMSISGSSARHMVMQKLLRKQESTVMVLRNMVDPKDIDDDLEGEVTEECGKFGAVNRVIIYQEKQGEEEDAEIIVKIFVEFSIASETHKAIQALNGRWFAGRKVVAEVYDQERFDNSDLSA
UniProt Q16401: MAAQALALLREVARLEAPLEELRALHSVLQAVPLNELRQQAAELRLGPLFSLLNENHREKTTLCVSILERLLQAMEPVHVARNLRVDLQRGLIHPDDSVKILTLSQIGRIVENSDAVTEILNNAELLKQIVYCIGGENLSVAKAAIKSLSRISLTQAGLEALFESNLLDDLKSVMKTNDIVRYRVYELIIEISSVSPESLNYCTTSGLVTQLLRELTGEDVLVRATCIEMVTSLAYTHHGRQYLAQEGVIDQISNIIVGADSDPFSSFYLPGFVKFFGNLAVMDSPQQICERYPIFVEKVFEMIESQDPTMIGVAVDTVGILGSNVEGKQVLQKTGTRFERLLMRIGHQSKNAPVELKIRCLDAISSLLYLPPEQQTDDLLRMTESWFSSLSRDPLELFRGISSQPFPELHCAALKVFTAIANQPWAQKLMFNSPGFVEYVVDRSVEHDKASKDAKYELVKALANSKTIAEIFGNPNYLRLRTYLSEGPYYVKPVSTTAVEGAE
UniProt Q9Y6M0: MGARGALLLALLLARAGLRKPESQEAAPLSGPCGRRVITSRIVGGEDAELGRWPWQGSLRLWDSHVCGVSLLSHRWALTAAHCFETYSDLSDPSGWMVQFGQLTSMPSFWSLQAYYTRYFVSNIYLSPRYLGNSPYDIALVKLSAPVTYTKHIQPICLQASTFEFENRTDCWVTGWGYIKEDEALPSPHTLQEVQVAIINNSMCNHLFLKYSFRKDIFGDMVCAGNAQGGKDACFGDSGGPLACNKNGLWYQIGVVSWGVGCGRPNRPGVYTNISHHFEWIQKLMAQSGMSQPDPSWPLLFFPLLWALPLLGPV
UniProt O75365, whole entry, looked up: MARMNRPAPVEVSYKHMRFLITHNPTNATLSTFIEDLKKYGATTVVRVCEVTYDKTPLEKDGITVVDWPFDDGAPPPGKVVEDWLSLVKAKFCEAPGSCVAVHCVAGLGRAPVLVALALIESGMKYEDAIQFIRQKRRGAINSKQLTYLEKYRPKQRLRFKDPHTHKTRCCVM
UniProt P07602: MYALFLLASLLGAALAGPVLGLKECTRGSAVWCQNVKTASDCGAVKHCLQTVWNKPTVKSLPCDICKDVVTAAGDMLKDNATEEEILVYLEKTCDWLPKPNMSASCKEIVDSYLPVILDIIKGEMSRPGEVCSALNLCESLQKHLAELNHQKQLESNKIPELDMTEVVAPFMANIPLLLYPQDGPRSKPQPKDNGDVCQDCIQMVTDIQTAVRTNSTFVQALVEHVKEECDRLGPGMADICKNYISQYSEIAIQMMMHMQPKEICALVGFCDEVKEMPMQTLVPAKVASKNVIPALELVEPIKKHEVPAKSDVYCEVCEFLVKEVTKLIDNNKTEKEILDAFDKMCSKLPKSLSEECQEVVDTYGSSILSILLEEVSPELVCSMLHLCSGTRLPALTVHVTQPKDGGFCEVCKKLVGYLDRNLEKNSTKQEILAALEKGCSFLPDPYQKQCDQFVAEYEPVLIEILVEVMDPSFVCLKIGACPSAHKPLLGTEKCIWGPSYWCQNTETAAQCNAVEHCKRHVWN
UniProt Q6NUJ5: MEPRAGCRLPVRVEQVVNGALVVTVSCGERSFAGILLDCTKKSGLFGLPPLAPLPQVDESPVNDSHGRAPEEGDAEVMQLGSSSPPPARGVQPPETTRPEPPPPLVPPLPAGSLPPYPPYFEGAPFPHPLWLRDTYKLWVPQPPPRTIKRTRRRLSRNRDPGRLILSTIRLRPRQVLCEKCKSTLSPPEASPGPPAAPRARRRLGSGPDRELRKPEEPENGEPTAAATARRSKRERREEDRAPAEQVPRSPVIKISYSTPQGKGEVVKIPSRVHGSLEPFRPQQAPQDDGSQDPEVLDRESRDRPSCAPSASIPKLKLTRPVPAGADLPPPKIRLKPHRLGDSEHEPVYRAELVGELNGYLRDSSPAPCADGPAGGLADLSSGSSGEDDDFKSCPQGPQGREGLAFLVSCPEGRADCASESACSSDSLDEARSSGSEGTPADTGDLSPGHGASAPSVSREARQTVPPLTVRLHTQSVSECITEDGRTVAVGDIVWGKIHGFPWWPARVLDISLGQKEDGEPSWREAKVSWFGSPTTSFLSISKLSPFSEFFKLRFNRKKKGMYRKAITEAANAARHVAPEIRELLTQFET
UniProt P43115: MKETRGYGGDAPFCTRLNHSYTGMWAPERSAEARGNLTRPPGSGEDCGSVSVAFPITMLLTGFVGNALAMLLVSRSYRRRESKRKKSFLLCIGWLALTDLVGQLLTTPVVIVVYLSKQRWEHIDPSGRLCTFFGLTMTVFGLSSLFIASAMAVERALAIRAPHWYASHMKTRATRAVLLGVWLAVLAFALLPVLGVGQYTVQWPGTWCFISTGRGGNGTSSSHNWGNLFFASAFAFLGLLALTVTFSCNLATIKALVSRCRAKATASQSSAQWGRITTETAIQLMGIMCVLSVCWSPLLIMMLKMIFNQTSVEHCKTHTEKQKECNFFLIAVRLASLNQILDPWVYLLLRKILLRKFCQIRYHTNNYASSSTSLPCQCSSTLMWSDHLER
UniProt Q86YD1: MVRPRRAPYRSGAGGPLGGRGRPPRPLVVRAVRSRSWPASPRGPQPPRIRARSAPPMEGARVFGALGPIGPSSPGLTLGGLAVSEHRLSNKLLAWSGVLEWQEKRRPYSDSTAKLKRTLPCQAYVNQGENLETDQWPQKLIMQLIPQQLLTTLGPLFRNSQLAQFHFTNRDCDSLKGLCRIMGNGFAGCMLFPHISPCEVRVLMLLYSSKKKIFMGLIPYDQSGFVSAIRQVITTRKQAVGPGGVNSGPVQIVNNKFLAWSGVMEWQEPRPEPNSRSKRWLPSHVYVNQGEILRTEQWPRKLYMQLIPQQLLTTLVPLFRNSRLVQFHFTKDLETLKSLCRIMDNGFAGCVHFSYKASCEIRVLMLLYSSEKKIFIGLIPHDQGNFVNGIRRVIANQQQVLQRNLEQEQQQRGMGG
UniProt Q16378: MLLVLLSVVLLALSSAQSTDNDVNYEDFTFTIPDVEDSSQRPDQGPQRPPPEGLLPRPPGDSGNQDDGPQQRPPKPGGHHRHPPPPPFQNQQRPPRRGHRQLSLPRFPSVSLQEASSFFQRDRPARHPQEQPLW
UniProt P10586, whole entry, looked up: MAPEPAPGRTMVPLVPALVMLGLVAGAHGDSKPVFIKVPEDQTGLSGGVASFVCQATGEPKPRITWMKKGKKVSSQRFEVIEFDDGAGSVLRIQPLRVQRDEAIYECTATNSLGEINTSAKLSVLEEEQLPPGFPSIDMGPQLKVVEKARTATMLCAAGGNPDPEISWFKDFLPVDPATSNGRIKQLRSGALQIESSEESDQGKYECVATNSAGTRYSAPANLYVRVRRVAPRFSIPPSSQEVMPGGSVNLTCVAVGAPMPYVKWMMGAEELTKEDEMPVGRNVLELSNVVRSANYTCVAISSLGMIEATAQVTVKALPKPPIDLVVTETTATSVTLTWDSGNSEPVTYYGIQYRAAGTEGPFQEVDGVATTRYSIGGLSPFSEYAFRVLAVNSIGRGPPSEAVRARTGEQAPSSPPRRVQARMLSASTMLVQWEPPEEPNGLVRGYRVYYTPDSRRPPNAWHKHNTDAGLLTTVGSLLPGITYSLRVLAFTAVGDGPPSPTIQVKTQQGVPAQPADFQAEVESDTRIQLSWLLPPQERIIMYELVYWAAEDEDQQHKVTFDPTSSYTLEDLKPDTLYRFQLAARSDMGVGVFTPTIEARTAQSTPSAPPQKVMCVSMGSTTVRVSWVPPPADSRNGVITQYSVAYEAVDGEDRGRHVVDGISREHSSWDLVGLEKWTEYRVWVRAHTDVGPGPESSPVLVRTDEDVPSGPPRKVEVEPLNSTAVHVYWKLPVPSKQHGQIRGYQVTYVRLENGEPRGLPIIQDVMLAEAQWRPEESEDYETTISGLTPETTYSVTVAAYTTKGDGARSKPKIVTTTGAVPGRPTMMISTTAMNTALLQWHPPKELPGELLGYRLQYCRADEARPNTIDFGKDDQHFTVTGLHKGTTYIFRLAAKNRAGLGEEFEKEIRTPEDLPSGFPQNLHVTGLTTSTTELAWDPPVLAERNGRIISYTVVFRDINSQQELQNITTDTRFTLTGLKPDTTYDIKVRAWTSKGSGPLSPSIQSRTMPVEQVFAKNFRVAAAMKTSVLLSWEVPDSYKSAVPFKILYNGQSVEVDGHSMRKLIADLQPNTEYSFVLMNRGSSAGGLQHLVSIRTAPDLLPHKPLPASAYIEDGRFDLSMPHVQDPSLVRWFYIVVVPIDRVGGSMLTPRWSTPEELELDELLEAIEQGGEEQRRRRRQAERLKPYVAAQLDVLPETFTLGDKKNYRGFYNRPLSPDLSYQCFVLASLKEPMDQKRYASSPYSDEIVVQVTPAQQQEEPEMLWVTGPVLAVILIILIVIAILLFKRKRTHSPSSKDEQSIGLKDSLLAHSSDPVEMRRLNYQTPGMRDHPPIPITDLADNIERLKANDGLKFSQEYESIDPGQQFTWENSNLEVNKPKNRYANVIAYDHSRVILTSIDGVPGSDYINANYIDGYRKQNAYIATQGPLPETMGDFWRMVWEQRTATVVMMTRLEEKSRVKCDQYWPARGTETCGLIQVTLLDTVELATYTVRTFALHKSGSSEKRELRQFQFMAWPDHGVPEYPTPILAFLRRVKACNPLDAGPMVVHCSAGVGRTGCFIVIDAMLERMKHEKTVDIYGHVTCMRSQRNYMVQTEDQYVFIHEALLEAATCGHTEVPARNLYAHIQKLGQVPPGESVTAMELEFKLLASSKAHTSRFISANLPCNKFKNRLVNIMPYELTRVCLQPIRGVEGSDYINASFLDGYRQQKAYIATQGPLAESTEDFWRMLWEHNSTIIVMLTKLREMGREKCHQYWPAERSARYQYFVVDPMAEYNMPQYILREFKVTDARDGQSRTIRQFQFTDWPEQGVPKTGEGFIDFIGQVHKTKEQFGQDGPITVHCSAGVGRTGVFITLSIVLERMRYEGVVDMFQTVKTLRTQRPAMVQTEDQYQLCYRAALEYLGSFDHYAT

Experiments:
Experiment in all cases: log2 fold change, soluble protein after heating vs DMSO (PISA); higher = thermal stabilisation; K562 lysate, 10 uM; active = over 0.2 and 3.5 SD of the protein, either way, in both replicates (recomputed)
[1] = compound: Cc1cn(-c2cc(NC(=O)c3ccc(C)c(Nc4nccc(-c5cccnc5)n4)c3)cc(C(F)(F)F)c2)cn1 [nilotinib]
How it was run: (§1)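 Dounce homogenisation of K562 pellets in PBS pH 7.4 with 1 mM MgCl2 produced a crude extract, used at 1 mg/mL protein. Exposure to 10 μM compound lasted 30 min, and aliquots were then heated for 3 min across 48°C-58°C, pooled and brought to 0.5% NP-40 at 4°C. The supernatant after 21,000xg for 90 min was quantified by TMTpro 16plex LC-MS/MS with channel sums equalised. Duplicate values are given as log-two fold change in thermal stability relative to solvent controls.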

[2] = compound: Cc1nc(Nc2n[nH]c3c2CN(C(=O)N[C@H](CN(C)C)c2ccccc2)C3(C)C)c2sccc2n1
How it was run: as §1

[3] = compound: Cc1nc(Nc2ncc(C(=O)Nc3c(C)cccc3Cl)s2)cc(N2CCN(CCO)CC2)n1 [dasatinib]
How it was run: as §1

[4] = compound: Cc1ncc(-c2ccnc(Nc3ccc(S(C)(=O)=O)cc3)n2)n1C(C)C
How it was run: as §1

[5] = compound: Cn1cc(-c2ccc3c(c2)CCN3C(=O)Cc2cccc(C(F)(F)F)c2)c2c(N)ncnc21
How it was run: as §1

[6] = compound: Cn1cc(CNCC2CCN(c3ncc(C(=O)NO)cn3)CC2)c2ccccc21 [quisinostat]
How it was run: as §1

[7] = compound: Cn1cncc1[C@@](N)(c1ccc(Cl)cc1)c1ccc2c(c1)c(-c1cccc(Cl)c1)cc(=O)n2C [tipifarnib]
How it was run: as §1

[8] = compound: NC(=O)Nc1cc(-c2cccc(F)c2)sc1C(=O)N[C@H]1CCCNC1
How it was run: as §1

[9] = compound: NC(=O)c1cnc(N[C@@H]2CCCC[C@@H]2N)nc1Nc1cccc(-n2nccn2)c1
How it was run: as §1

[10] = compound: NC1(c2ccc(-c3nc4ccn5c(=O)[nH]nc5c4cc3-c3ccccc3)cc2)CCC1
How it was run: as §1

Measured: log2 fold change

PSMA5 (UniProt P28066)
inactive: [1] 0.022 | [2] -0.039 | [3] 0.012 | [4] 0.013 | [5] 0 | [6] -0.022 | [7] -0.011 | [8] 0.006 | [9] -0.002 | [10] -0.01

PSMA1 isoform 2 (UniProt P25786)
inactive: [1] 0.001 | [2] 0.014 | [3] 0.035 | [4] 0.028 | [5] -0.029 | [6] 0.01 | [7] 0.025 | [8] -0.018 | [9] -0.031 | [10] 0.011

PURA (UniProt Q00577)
inactive: [1] -0.056 | [2] 0.032 | [3] 0.028 | [4] -0.046 | [5] 0.062 | [6] 0.008 | [7] -0.027 | [8] -0.033 | [9] 0.01 | [10] -0.04

PSMA7 (UniProt H0Y586)
inactive: [1] 0.059 | [2] 0.087 | [4] 0.064 | [6] -0.011 | [7] -0.11 | [8] 0.069 | [9] -0.044 | [10] -0.426

PSMB7 (UniProt Q99436)
inactive: [1] 0.043 | [2] 0.001 | [3] 0.039 | [4] 0.034 | [5] 0.014 | [6] -0.046 | [7] 0.009 | [8] 0.003 | [9] -0.002 | [10] -0.011

PTPRB isoform 3 (UniProt P23467)
inactive: [1] -0.269 | [2] 0.145 | [3] -0.367 | [4] 0.062 | [5] -0.01 | [7] -0.036 | [9] 0.329

PSMD6 (UniProt Q15008)
inactive: [1] -0.024 | [2] 0.079 | [4] 0.221 | [6] 0.072 | [7] -0.094 | [8] -0.012 | [9] 0.033

PRXL2A (UniProt Q9BRX8)
inactive: [1] 0.116 | [2] -0.051 | [3] -0.012 | [4] 0.042 | [5] -0.023 | [7] -0.16 | [10] -0.122

PSMD6 isoform 4 (UniProt Q15008)
inactive: [1] -0.022 | [2] 0.031 | [3] 0.004 | [4] 0.003 | [5] 0.011 | [6] -0.016 | [7] -0.009 | [8] -0.012 | [9] 0.013 | [10] -0.003

PTP4A1 (UniProt Q93096)
inactive: [1] -0.035 | [2] 0.005 | [3] 0.026 | [4] -0.057 | [5] 0 | [6] 0.151 | [7] 0.011 | [8] -0.059 | [9] -0.011 | [10] -0.029

PTPRA (UniProt P18433)
inactive: [1] -0.016 | [2] 0.029 | [3] -0.039 | [4] -0.012 | [5] 0.04 | [6] -0.005 | [7] 0 | [8] 0.03 | [9] -0.009 | [10] -0.001

3 entries picked at random from the list so far:
PSMD6 isoform 4 (UniProt Q15008)
inactive: [1] -0.022 | [2] 0.031 | [3] 0.004 | [4] 0.003 | [5] 0.011 | [6] -0.016 | [7] -0.009 | [8] -0.012 | [9] 0.013 | [10] -0.003

PRXL2A (UniProt Q9BRX8)
inactive: [1] 0.116 | [2] -0.051 | [3] -0.012 | [4] 0.042 | [5] -0.023 | [7] -0.16 | [10] -0.122

PTPRB isoform 3 (UniProt P23467)
inactive: [1] -0.269 | [2] 0.145 | [3] -0.367 | [4] 0.062 | [5] -0.01 | [7] -0.036 | [9] 0.329

Continuation:

PUF60 isoform 2 (UniProt Q9UHX1)
inactive: [1] -0.011 | [2] -0.027 | [4] 0.05 | [6] 0.013 | [7] 0.023 | [8] 0.017 | [9] -0.016 | [10] -0.184

PSMD5 (UniProt Q16401)
inactive: [1] -0.006 | [2] -0.027 | [3] -0.027 | [4] -0.026 | [5] 0.03 | [6] 0.007 | [7] -0.005 | [8] -0.005 | [9] 0.012 | [10] -0.017

PSTPIP2 (UniProt Q9H939)
inactive: [1] 0.029 | [2] 0.016 | [3] -0.056 | [4] 0.028 | [5] 0.023 | [6] -0.037 | [7] -0.008 | [8] 0.008 | [9] -0.007 | [10] 0.007

PTPA (UniProt Q5T948)
inactive: [9] -0.051

PTPN14 (UniProt Q15678)
inactive: [6] -0.263 | [8] -0.001

PSMB2, A0A087WVV1
inactive: [6] -0.144 | [8] -0.271 | [10] -0.063

PSMF1 (UniProt Q5QPM7)
inactive: [6] -0.046 | [8] 0.027

PSMC5 (UniProt J3KRP2)
inactive: [1] -0.1 | [2] 0.104 | [4] 0.148 | [7] 0.039 | [9] -0.078

PRSS21 (UniProt Q9Y6M0)
inactive: [3] -0.016 | [5] -0.011 | [6] -0.021 | [8] 0 | [9] 0.041 | [10] -0.041

PSIP1 (UniProt V9GYT7)
inactive: [6] -0.165 | [8] -0.039 | [10] 0.003

PSMB10 (UniProt P40306)
inactive: [3] 0.017 | [5] 0.055 | [6] -0.033 | [8] -0.008 | [9] -0.038

PTP4A3 (UniProt O75365)
inactive: [3] -0.078 | [5] -0.037 | [6] 0.22 | [8] 0.128 | [9] 0.057 | [10] 0.026

PTRH1 (UniProt Q86Y79)
inactive: [6] 0.015 | [8] -0.018 | [10] 0.176

PTPN11, A0A0U1RRI0
inactive: [9] -0.081

PSMA3 (UniProt H0YJ03)
inactive: [3] -0.077 | [5] -0.104 | [6] -0.189 | [8] 0.082 | [9] 0.01 | [10] 0.06

PSAP isoform 2 (UniProt P07602)
inactive: [10] -0.146

PRSS50 (UniProt Q9UI38)
inactive: [3] 0.102 | [5] -0.029 | [9] 0.038

PWWP2B (UniProt Q6NUJ5)
inactive: [3] 0.194 | [5] 0.041 | [9] 0.025

PSME3 (UniProt K7EMD0)
inactive: [1] -0.074 | [2] 0.114 | [4] 0.012 | [7] 0.043 | [9] -0.054

PTGER3 isoform 2 (UniProt P43115)
inactive: [6] 0.028 | [8] 0.191 | [9] -0.035

PTBP1, A0A0U1RRM4
inactive: [9] -0.225

PSMB8 (UniProt P28062)
inactive: [3] -0.014 | [5] 0.085 | [6] -0.119 | [8] 0.079 | [9] -0.029 | [10] 0.053

PTPA (UniProt Q5T949)
inactive: [1] -0.098 | [2] 0.023 | [4] 0.005 | [7] -0.173 | [9] 0.017

PRSS8 (UniProt Q16651)
inactive: [3] 0.058 | [5] 0.035 | [6] -0.205 | [8] 0.06 | [10] 0.071

PTOV1 (UniProt Q86YD1)
inactive: [3] -0.273 | [5] 0.124 | [6] 0.009 | [8] 0.143

PSTK (UniProt H7BYY4)
inactive: [3] -0.065 | [5] 0.248

PRRC2B (UniProt H0Y412)
inactive: [10] 0.156

PRSS2 (UniProt P07478)
inactive: [3] -0.055 | [5] 0.305 | [9] 0.263

PTK2 isoform 2 (UniProt Q05397)
inactive: [3] 0.014 | [5] 0.102 | [9] 0.034 | [10] -0.168

PTPRJ (UniProt Q12913)
inactive: [1] -0.053 | [2] -0.025 | [4] 0.093 | [6] 0.019 | [7] -0.077 | [8] -0.062 | [9] -0.041 | [10] -0.058

PSMD1, A0A087WW66
inactive: [9] -0.023

PTPDC1 isoform 2 (UniProt A2A3K4)
inactive: [1] -0.422 | [2] 0.246 | [4] -0.305 | [6] -0.019 | [7] -0.206 | [8] -0.051 | [10] -0.059

PRR4 (UniProt Q16378)
inactive: [1] 0.047 | [2] -0.145 | [4] -0.027 | [7] 0.05 | [9] 0.032 | [10] 0.012

PRR12 (UniProt Q9ULL5)
inactive: [6] -0.176 | [8] 0.056

PSMD4 (UniProt Q5VWC4)
inactive: [1] -0.069 | [2] -0.052 | [4] 0.059 | [6] -0.124 | [7] -0.015 | [8] 0.03 | [10] -0.141

PTPRF (UniProt P10586)
inactive: [6] 0.156 | [8] -0.2

PRR16 (UniProt Q569H4)
inactive: [6] -0.011 | [8] 0.008
